Some of the results follow.

Amino acid sequences for entries named in this document (tags omitted). A change or cut given only in a name is not applied to a line headed by its entry.
UniProt Q8NI22: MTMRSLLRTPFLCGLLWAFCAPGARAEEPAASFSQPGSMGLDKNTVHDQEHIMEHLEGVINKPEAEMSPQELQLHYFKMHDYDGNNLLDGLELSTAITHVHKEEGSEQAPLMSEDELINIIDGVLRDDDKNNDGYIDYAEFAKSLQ
UniProt Q6ZNC8: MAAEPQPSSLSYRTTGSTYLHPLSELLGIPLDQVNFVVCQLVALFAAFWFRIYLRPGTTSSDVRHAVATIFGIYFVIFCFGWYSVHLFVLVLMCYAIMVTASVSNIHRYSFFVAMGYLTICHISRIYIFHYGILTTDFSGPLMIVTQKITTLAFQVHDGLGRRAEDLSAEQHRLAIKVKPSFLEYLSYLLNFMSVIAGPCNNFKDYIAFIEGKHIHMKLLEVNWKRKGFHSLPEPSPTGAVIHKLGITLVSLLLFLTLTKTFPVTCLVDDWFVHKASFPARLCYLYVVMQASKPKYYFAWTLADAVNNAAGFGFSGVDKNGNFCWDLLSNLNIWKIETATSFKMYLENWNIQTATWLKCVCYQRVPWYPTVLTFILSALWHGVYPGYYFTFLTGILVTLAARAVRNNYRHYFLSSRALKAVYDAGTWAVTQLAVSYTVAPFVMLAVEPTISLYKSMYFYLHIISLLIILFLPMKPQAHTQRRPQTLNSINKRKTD
UniProt Q71F56: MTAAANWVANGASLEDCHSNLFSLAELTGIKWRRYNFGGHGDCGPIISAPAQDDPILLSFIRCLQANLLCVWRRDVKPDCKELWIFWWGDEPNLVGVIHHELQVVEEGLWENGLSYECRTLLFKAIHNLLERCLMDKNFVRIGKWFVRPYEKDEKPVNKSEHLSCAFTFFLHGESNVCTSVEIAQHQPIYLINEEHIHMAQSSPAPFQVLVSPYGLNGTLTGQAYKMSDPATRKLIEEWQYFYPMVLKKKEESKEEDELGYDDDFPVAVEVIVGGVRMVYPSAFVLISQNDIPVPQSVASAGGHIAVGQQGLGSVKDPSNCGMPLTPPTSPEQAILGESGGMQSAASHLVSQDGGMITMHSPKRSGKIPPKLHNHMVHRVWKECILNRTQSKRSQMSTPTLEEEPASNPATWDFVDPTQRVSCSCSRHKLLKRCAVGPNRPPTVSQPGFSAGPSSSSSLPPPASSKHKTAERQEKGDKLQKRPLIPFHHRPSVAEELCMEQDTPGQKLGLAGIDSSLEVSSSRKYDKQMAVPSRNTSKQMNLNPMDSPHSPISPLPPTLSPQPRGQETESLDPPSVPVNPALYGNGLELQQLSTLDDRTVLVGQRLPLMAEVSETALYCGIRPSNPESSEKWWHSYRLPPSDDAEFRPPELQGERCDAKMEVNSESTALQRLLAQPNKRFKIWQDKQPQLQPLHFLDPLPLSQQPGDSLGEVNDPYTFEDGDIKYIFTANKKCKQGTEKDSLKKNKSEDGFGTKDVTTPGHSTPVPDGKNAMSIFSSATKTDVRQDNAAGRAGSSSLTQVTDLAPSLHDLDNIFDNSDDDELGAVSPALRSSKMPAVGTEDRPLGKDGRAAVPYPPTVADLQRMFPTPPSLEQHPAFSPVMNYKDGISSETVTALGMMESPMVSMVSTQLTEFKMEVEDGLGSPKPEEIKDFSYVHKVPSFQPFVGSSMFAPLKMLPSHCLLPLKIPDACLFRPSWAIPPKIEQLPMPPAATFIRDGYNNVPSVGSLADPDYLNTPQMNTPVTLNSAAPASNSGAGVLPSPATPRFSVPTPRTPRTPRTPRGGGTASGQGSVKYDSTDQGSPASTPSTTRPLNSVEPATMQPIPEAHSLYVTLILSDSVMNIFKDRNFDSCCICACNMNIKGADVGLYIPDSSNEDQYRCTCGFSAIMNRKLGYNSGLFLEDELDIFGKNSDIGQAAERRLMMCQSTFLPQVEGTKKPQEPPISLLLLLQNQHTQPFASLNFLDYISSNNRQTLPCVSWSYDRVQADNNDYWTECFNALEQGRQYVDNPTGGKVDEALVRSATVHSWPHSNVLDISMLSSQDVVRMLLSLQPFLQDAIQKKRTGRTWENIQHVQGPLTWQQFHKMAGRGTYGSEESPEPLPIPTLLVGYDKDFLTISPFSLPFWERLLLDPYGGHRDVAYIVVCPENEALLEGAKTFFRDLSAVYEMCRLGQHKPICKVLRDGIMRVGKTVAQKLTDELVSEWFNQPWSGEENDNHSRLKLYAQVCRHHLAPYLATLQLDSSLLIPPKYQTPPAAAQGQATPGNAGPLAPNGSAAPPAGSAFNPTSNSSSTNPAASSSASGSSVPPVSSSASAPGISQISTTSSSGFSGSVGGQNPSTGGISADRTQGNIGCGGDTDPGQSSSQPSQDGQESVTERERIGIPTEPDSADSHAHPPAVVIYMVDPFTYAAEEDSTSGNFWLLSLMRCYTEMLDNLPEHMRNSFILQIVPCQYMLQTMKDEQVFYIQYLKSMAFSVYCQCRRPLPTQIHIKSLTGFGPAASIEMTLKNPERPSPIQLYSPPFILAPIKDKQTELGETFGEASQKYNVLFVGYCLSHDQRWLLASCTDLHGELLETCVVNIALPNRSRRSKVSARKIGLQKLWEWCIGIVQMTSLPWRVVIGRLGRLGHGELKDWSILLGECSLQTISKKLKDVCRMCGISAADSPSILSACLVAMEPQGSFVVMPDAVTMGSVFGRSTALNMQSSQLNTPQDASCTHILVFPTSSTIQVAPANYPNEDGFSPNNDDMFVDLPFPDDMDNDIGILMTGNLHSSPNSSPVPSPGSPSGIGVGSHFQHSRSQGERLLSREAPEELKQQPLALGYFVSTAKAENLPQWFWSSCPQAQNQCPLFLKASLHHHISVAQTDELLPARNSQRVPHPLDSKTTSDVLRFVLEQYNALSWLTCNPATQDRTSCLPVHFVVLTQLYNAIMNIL
UniProt O60244: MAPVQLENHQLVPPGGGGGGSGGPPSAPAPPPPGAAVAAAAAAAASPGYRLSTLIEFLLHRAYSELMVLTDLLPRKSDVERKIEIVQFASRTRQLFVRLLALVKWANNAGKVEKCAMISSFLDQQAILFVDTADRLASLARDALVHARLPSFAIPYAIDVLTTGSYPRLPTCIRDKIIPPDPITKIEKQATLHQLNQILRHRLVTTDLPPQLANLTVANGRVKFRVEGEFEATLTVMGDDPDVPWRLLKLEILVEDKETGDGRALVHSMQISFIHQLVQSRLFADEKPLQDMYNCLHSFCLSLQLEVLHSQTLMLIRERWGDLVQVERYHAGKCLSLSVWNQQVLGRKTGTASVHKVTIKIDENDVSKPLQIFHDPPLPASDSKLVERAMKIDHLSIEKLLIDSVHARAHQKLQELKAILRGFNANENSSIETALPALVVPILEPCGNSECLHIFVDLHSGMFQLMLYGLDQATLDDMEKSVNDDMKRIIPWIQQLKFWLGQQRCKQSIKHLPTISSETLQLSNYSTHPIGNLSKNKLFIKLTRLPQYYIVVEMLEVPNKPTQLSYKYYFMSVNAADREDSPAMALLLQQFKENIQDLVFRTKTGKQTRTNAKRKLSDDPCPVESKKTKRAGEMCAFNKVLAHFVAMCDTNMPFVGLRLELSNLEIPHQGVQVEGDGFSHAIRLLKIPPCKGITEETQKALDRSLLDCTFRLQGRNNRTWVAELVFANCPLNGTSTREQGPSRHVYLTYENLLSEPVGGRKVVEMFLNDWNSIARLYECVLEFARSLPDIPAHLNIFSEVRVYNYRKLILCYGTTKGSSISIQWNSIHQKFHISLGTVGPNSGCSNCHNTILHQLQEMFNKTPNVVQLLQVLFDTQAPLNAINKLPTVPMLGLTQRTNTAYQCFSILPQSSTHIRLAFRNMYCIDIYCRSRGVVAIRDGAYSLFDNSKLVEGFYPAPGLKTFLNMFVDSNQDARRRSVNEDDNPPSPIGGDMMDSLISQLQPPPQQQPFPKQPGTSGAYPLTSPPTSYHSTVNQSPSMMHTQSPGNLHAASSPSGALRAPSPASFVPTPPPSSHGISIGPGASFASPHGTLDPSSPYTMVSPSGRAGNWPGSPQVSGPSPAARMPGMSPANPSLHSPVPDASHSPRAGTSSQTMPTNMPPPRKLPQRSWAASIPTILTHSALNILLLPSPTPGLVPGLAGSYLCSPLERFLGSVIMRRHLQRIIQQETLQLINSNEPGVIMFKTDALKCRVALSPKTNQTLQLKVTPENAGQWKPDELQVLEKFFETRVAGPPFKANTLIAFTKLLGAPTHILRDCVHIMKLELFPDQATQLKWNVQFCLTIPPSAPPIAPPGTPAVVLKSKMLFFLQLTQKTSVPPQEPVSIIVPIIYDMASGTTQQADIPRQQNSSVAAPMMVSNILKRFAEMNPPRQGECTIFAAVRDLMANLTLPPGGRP
UniProt O95402: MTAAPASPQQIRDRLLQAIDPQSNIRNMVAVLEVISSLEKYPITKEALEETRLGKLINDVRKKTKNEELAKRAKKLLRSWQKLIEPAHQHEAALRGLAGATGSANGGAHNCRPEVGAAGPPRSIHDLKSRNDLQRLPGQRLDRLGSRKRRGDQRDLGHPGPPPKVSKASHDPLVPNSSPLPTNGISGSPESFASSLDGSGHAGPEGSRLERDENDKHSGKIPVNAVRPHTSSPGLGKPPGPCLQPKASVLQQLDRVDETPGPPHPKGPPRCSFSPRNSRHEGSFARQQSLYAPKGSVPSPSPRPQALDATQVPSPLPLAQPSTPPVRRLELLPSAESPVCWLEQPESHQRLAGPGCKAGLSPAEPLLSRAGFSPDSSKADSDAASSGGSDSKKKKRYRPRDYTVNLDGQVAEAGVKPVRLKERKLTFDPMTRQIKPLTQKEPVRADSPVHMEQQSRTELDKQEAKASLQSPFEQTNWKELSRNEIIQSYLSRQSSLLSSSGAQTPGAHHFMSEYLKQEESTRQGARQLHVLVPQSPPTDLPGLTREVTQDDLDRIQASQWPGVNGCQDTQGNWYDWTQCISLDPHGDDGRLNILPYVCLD
UniProt Q9P086: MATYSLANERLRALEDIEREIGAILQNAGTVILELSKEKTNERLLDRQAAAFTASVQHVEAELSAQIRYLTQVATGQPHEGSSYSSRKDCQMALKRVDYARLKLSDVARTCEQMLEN
UniProt P55082: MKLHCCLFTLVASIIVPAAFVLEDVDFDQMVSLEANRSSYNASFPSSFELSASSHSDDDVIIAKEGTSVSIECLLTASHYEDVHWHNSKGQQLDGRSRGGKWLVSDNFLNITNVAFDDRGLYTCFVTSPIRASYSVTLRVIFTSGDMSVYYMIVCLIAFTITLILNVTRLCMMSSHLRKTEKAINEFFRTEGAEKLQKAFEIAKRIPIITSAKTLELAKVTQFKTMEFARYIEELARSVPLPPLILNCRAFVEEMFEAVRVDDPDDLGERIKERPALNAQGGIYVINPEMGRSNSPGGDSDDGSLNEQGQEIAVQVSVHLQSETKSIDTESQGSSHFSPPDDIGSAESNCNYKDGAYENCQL
UniProt Q7L2J0: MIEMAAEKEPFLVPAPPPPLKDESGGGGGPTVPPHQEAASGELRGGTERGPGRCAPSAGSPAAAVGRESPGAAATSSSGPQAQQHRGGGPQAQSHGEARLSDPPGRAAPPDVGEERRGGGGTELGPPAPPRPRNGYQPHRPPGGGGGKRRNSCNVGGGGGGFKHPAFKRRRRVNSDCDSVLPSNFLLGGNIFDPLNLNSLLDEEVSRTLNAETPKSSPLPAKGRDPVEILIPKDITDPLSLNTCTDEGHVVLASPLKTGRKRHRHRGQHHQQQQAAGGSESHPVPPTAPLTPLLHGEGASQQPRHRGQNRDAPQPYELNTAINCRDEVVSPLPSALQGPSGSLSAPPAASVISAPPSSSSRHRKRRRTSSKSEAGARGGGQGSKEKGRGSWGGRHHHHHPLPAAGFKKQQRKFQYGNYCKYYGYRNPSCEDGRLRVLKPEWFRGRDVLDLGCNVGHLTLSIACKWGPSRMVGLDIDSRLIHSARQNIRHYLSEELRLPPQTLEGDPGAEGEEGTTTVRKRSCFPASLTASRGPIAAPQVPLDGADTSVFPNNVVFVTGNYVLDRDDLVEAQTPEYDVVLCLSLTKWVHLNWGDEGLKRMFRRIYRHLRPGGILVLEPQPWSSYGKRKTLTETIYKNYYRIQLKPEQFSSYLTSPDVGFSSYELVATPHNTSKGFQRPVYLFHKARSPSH
UniProt Q9H3U5: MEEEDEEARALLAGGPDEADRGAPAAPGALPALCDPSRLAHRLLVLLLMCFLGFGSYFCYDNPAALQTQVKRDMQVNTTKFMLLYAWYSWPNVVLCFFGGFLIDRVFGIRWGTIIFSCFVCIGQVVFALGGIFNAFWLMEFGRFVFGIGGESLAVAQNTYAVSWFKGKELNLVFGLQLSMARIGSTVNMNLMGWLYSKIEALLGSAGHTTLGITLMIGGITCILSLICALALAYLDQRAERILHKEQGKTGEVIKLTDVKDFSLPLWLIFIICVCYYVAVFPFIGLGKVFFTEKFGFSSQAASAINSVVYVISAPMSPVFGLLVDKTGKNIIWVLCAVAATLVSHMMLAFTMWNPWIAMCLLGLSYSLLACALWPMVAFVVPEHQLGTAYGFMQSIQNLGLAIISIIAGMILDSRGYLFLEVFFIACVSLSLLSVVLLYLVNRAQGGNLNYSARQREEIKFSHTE

Compound in the first test: C/C(=N\NC(=O)C1=CC(=CC=C1)S(=O)(=O)N2CCOCC2)/C3=C(C=CC(=C3)Cl)O
As to the kind of experiment: log2 fold change, soluble protein after heating vs DMSO (PISA); higher = thermal stabilisation; K562 lysate, 10 uM; active = over 0.2 and 3.5 SD of the protein, either way, in both replicates (recomputed). Summed up:
(§1)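 The values are log-two fold changes in thermal stability compared with solvent controls and come from duplicates. They were obtained by TMTpro 16plex LC-MS/MS, with channel sums equalised, on the supernatant after 21,000xg for 90 min. That supernatant came from crude K562 extract at 1 mg/mL protein treated with 10 μM compound for 30 min, heated for 3 min across 48°C-58°C, pooled and brought to 0.5% NP-40 at 4°C.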
With METTL7A (UniProt Q9H8H3), the log2 fold change was inactive: 0.043.

In the case of MCM10 (UniProt Q7L590), the log2 fold change is inactive: -0.079.

For the target MDM2 isoform 11 (UniProt Q00987), the log2 fold change is inactive: -0.039.

Turning to MCFD2 (UniProt Q8NI22), the log2 fold change was inactive: -0.138.

As for MCM5 (UniProt P33992), the log2 fold change is inactive: -0.011.

As to MBOAT1 (UniProt Q6ZNC8), the log2 fold change is inactive: -0.125.

As for MED13L (UniProt Q71F56), the log2 fold change is inactive: -0.049.

MCOLN1 (UniProt Q9GZU1): the log2 fold change is inactive: 0.182.

MBLAC1 (UniProt A4D2B0): the log2 fold change was inactive: -0.165.

METTL14 (UniProt Q9HCE5): the log2 fold change is inactive: 0.037.

Regarding MELK (UniProt Q14680), the log2 fold change is inactive: -0.077.

Regarding MED12 isoform 2 (UniProt Q93074), the log2 fold change was inactive: -0.037.

Take METTL16 (UniProt Q86W50): the log2 fold change was inactive: 0.028.

As for MFSD8 (UniProt Q8NHS3), the log2 fold change is inactive: 0.013.

Regarding METTL5 (UniProt Q9NRN9), the log2 fold change was inactive: 0.031.

MED20 (UniProt Q9H944): the log2 fold change was inactive: 0.002.

MCM3AP (UniProt O60318): the log2 fold change is inactive: 0.046.

Regarding MED14 (UniProt O60244), the log2 fold change is inactive: 0.018.

With MEF2A isoform 2 (UniProt Q02078), the log2 fold change was inactive: -0.044.

Take MED22 isoform 2 (UniProt Q15528): the log2 fold change is inactive: 0.016.

Consider MFHAS1 (UniProt Q9Y4C4), for which the log2 fold change was inactive: 0.02.

As for MFSD12 isoform 3 (UniProt Q6NUT3), the log2 fold change was inactive: 0.047.

Regarding MAVS (UniProt Q7Z434), the log2 fold change is inactive: -0.02.

As for MED26 (UniProt O95402), the log2 fold change is inactive: -0.002.

In the case of MDM1 (UniProt Q8TC05), the log2 fold change is inactive: -0.105.

As to MEGF9 (UniProt Q9H1U4), the log2 fold change was inactive: -0.145.

Turning to MELTF (UniProt P08582), the log2 fold change was inactive: 0.018.

As for MED11 (UniProt Q9P086), the log2 fold change was inactive: 0.353.

Turning to MEIS2 (UniProt O14770), the log2 fold change is inactive: -0.074.

In the case of MCMBP isoform 2 (UniProt Q9BTE3), the log2 fold change is inactive: 0.027.

With MFAP3 (UniProt P55082), the log2 fold change is inactive: 0.088.

In the case of MBNL2 (UniProt Q5VZF2), the log2 fold change was inactive: 0.047.

With MEN1 (UniProt O00255), the log2 fold change was inactive: 0.008.

Regarding MEPCE (UniProt Q7L2J0), the log2 fold change was inactive: 0.024.

Take MED17 (UniProt Q9NVC6): the log2 fold change is inactive: 0.062.

For the target MEF2D (UniProt Q14814), the log2 fold change was inactive: -0.038.

Consider MFSD1 isoform 6 (UniProt Q9H3U5), for which the log2 fold change was inactive: 0.048.

As for MBOAT2 (UniProt Q6ZWT7), the log2 fold change is inactive: 0.014.

Compound in the next test: C1=CC(=CC=C1C2=NC3=C(N2)C=C(C=C3)C(=O)N)OC4=CC=C(C=C4)Cl
The description is as above. Summed up:
as §1
In the case of METTL7A (UniProt Q9H8H3), the log2 fold change is inactive: 0.183.

Consider MCM10 (UniProt Q7L590), for which the log2 fold change was inactive: -0.027.

For MDM2 isoform 11 (UniProt Q00987), the log2 fold change is inactive: 0.037.

Turning to MCFD2 (UniProt Q8NI22), the log2 fold change is inactive: 0.031.

Regarding MCM5 (UniProt P33992), the log2 fold change is inactive: -0.008.

Take MBOAT1 (UniProt Q6ZNC8): the log2 fold change was inactive: -0.018.

As for MED13L (UniProt Q71F56), the log2 fold change was inactive: 0.03.

With MCOLN1 (UniProt Q9GZU1), the log2 fold change is inactive: 0.001.

Turning to MBLAC1 (UniProt A4D2B0), the log2 fold change was inactive: -0.173.

With METTL14 (UniProt Q9HCE5), the log2 fold change is inactive: 0.032.

As to MELK (UniProt Q14680), the log2 fold change was inactive: 0.022.

Regarding MED12 isoform 2 (UniProt Q93074), the log2 fold change was inactive: 0.

With METTL16 (UniProt Q86W50), the log2 fold change is inactive: 0.037.

MFSD8 (UniProt Q8NHS3): the log2 fold change is inactive: 0.019.

Consider METTL5 (UniProt Q9NRN9), for which the log2 fold change was inactive: 0.034.

As for MED20 (UniProt Q9H944), the log2 fold change is inactive: -0.008.

On to MCM3AP (UniProt O60318), for which the log2 fold change is inactive: 0.1.

As for MED14 (UniProt O60244), the log2 fold change is inactive: 0.008.

As to MEF2A isoform 2 (UniProt Q02078), the log2 fold change was inactive: 0.039.

For MED22 isoform 2 (UniProt Q15528), the log2 fold change is inactive: -0.031.

Take MFHAS1 (UniProt Q9Y4C4): the log2 fold change is inactive: -0.056.

As to MFSD12 isoform 3 (UniProt Q6NUT3), the log2 fold change is inactive: 0.049.

For the target MAVS (UniProt Q7Z434), the log2 fold change was inactive: 0.

As for MED26 (UniProt O95402), the log2 fold change was inactive: 0.239.

Regarding MDM1 (UniProt Q8TC05), the log2 fold change was inactive: -0.036.

Turning to MEGF9 (UniProt Q9H1U4), the log2 fold change is inactive: -0.198.

On to MELTF (UniProt P08582), for which the log2 fold change is inactive: 0.033.

With MED11 (UniProt Q9P086), the log2 fold change was inactive: 0.025.

Take MEIS2 (UniProt O14770): the log2 fold change was inactive: -0.047.

MCMBP isoform 2 (UniProt Q9BTE3): the log2 fold change was inactive: 0.282.

Take MFAP3 (UniProt P55082): the log2 fold change was inactive: 0.096.

Consider MBNL2 (UniProt Q5VZF2), for which the log2 fold change was inactive: 0.311.

MEN1 (UniProt O00255): the log2 fold change is inactive: 0.024.

Regarding MEPCE (UniProt Q7L2J0), the log2 fold change was inactive: 0.005.

For the target MED17 (UniProt Q9NVC6), the log2 fold change is inactive: 0.019.

As for MEF2D (UniProt Q14814), the log2 fold change is inactive: 0.008.

MFSD1 isoform 6 (UniProt Q9H3U5): the log2 fold change is inactive: 0.022.

On to MBOAT2 (UniProt Q6ZWT7), for which the log2 fold change was inactive: -0.111.

Source of the values: the supplement of paper PMC10849652.
